Data published in PubChem BioAssay AID1794844 (National Center for Advancing Translational Sciences (NCATS), 2023).
Fewer than 10 of roughly 2,800 compounds were called active. Another 7% or so got no clear call; they are omitted. The call rests on the fitted dose curve; in most records, active means well fitted inhibition curve with a large enough effect; inconclusive means small, poorly fitted or top-dose-only effect; inactive means no such curve, though single readings can be large or run the other way. Some of the results follow.

Amino acid sequences for entries named in this document (tags omitted). A change or cut given only in a name is not applied to a line headed by its entry.
UniProt C7C422: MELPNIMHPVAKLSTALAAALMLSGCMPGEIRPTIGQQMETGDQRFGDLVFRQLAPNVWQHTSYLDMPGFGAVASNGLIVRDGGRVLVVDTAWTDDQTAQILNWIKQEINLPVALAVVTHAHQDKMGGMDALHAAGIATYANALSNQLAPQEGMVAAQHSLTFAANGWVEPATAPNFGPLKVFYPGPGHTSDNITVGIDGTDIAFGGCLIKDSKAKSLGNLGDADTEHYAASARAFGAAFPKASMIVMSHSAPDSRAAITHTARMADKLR

Target: Metallo-beta-lactamase type 2 (Klebsiella pneumoniae) (UniProt C7C422)
Assay: qHTS to identify inhibitors of the New Delhi Metallo-beta-lactamase (NDM): Nitrocefin screen against the machine-based learning selections. Further: % of control where 0% means no effect.
Conditions: NDM-1 enzyme, nitrocefin hydrolysis, absorbance 485 nm; activity, negative = inhibition: at the top concentration
Description: Assay Submitter (PI): James Inglese Ph.D., Patricia Dranchak Ph.D., Mahesh Aitha Ph.D. Assay Development and Screening Technology Laboratory (ADST) National Center for Advancing Translational Sciences (NCATS), Rockville, MD National Institute of Health (NIH), Bethesda, Maryland The metallo-beta-lactamases (MBL) are a main antibiotic resistance mechanism evolved by bacteria. There is an urgent clinical need for MBL inhibitors to mitigate this growing threat. To support a machine-based learning study, qHTS has been used to experimentally test inhibitors identified by prediction tools.
PROTOCOL TABLE (as described by Inglese et al., 2007) SEQUENCE No. (e.g., 1, 2, 3, etc.); […] (e.g., enzyme, Incubation, Reagent, etc.); VALUE; DESCRIPTION Primary Screen 1; NDM-1; 4 uL of 3 nM enzyme [2 nM final] in 50 mM HEPES (pH 7.0), 1 uM […], 0.01% Tween20; Use BioRaptr to dispense into two sets of Aurora black, clear bottom high base 1536-well plates 2; Compounds; 23 nL; Use Pin Tool (Wako) to transfer DMSO control and library compounds in DMSO 3; Incubate; >30 min 4a; Reagent; 2 uL of 50 uM nitrocefin [16.7 uM final] to one set of assay plates 4b; Reagent; 2 uL of 150 uM meropenem [50 uM final] to second set of assay plates 5a; Incubate; 15 min 5b; Incubate; 30 min 6a; Detector; Absorbance at 485 nm (bandwidth = 5 nm, 25 flashes/well) on Tecan Infinity 6b; Detector; Absorbance at 300 nm (bandwidth = 5 nm, 25 flashes/well) on Tecan Infinity NOTES (numbers refer to sequence above) 1; Column 1 of each plate received assay buffer without enzyme and columns 2-48 received enzyme for a final assay concentration of 2 nM. 2; Control plate contained DMSO in columns 1, 2, 3, and 4. 3; Compound interaction with enzyme. 4; Nitrocefin and meropenem substrates were prepared in the same assay buffer as step 1 for a final assay concentration of 16.7 uM and 50 uM, respectively, and added to all wells across respective sets of assay plates. 5; Default reader settings were applied for absorbance read at 485 nm (nitrocefin) or 300 nm (meropenem), bandwidth = 5 nm, 25 flashes/well. References: Inglese J, Shamu CE, Guy RK. 2007. Reporting data from high-throughput screening of small-molecule libraries. Nat Chem Biol. doi:10.1038/nchembio0807-438 Yasgar A, Shinn P, Jadhav A, Auld D, Michael S, Zheng W, Austin CP, Inglese J, Simeonov A. 2008. Compound Management for Quantitative High-Throughput Screening. J Lab Autom 13:79 - 89. doi:10.1016/j.jala.2007.12.004

SMILES	activity, negative = inhibition
COCc1cc(C[C@@H]2CC[C@H](O)[C@@H](CNC(=O)C3CCCC3)O2)no1	inactive: -10.6% [at 57.5 µM]
O[C@H]1CC[C@@H](Cc2cc(COc3ccccc3)on2)O[C@@H]1CN(CC1CC1)CC1CC1	inactive: 4.07% [at 57.5 µM]
CC(C)NS(=O)(=O)c1cc(C(=O)O)cc(-c2cccc3c2OCC3)c1	inactive: 7.31%
CCCN(CC1CC1)C(=O)C1CCC(=O)N(Cc2ccc(Cl)cc2)C1 (configuration not stated)	inactive: 2.23%
CN(C)Cc1cn(C[C@H]2C[C@@H](NC(=O)c3nc4ccccc4s3)[C@H](O)[C@@H]2O)nn1	inactive: -6.95%
Cc1cccc2c1nc1n2[C@@H](CNCc2ccc(C#N)cc2)COC1	inactive: 0.835% [at 57.5 µM]
Fc1ccccc1CN1CCNc2cc(Nc3cccnc3)ncc2C1	inactive: 6.12% [at 57.5 µM]
Fc1ccc2nc([C@H]3CCN(C4CCC4)C3)[nH]c2c1	inactive: 14% [at 76.7 µM]
O=c1[nH]c(-c2ccc(F)cc2)nc2c1CCN(S(=O)(=O)c1cccs1)C2	inactive: -13.6%
Nc1nc(C2CC(O)C2)cc(N2CCCN(Cc3ccccn3)CC2)n1 (configuration not stated)	inactive: -3.26%
CCO[C@H]1CN(C(=O)Cc2ccc3nc(C)[nH]c3c2)C[C@@H]1O	inactive: 3.02%
Cc1noc(C)c1[S+](=O)([O-])N1CCC2(C1)N=C(c1cccnc1)C(=O)N2 (configuration not stated)	inactive: -6.07%
COCc1ccc(CN[C@H]2C[C@@H](Cc3cc(CN4CCCCC4)on3)C2(C)C)o1	inactive: -0.793% [at 57.5 µM]
CNC(=O)C1CCCN(Cc2nc(-c3cccc(Oc4ccccc4)c3)oc2C)C1 (configuration not stated)	inactive: -2.13%
Oc1cccc(Nc2cnc3ccc(-c4ccc(F)cc4)nn23)c1	inactive: 7.06% [at 57.5 µM]
O=C(NC[C@H]1O[C@@H]2C[C@@H](CC(=O)N3CCC(F)(F)C3)O[C@@H]2[C@@H]1O)Nc1cccc(Cl)c1	inactive: -0.802%
COc1ccc(CNC(=O)C[C@@H]2C[C@H]3O[C@H](CNC(=O)NCc4ccccc4)[C@@H](O)[C@H]3O2)cc1	inactive: -0.956%
NC(=O)c1cccc(-c2cc3c(cn2)CN(Cc2ccncc2)CCN3)c1	inactive: -0.63% [at 57.5 µM]
O=c1c2nc(Nc3ccc(C(F)(F)F)cc3)ccc2ncn1Cc1ccccn1	inactive: 2.24% [at 57.5 µM]
CCN(CC)C(=O)C(C)[C@@H]1CC[C@@]2(C)Cc3sc(NC(=O)C4CC4)nc3[C@@H](C)[C@@H]2[C@H]1O (some centres not stated)	inactive: 1.47%
Cc1ccc(NC(=O)c2ccccc2)c(NC(=O)C2CCN(CC(N)=O)CC2)c1	inactive: 9%
OC[C@H]1CCN(c2ccnc3c(C(F)(F)F)cccc23)C[C@H]1O	inactive: 2.12%
CC(=O)N1CCN(c2cc(-c3noc([C@@H]4CCCN4Cc4ccc(N(C)C)cc4)n3)ccn2)CC1	inactive: 0.0299%
NC(=O)[C@@H](Cc1c[nH]c2ccccc12)NC(=O)[C@@H]1[C@@H](NC(=O)NC2CCCCC2)CCN1C(=O)c1cnccn1	inactive: -0.0947%

SMILES	activity, negative = inhibition
O=C(c1cccnc1)N1CC[C@H]2COC(=O)N2c2cc(F)ccc2C1	inactive: 129% [at 57.5 µM]
Cc1cccc(-c2cnc3n[nH]c(-c4ccccc4)c3n2)c1	inactive: 3.91% [at 76.7 µM]
O=C(O)CN1CCNc2nc(CNc3ccc(F)cc3)n(Cc3ccccc3)c2C1=O	inactive: 1% [at 57.5 µM]
Cc1ccc(F)cc1S(=O)(=O)N1CCn2c(n[nH]c2=O)C1	inactive: -3.37%
Cc1ccccc1-c1cnc2[nH]cc(CC(=O)NCc3ccccc3)c2c1	inactive: 7.78% [at 57.5 µM]
Cc1ccc(S(=O)(=O)NC[C@H]2O[C@H](Cc3cc(-c4cccc(O)c4)on3)CC[C@@H]2O)cc1	inactive: -4.07%
CC(=O)c1[nH]c(C)c(C(=O)N2CCCC(O)(CNC(=O)N(C)C)CC2)c1C (configuration not stated)	inactive: 1.09%
Oc1ccccc1CN1CC(CNc2cccnc2)C2(C1)CN(c1ccccc1)C2 (configuration not stated)	inactive: -0.4% [at 57.5 µM]
COc1ccc(CN2C[C@H](O)C[C@H]2c2nc(CS(=O)(=O)c3ccc(F)cc3)no2)cc1	inactive: 2.79%
COc1ccccc1-c1ccnc(N[C@H]2CO[C@H]3[C@@H]2OC[C@@H]3NC(=O)Nc2cccc(C(F)(F)F)c2)n1	inactive: 6.31%
NC(=O)C1CCN(CC[C@H]2CN(C(=O)Nc3ccc(OC(F)(F)F)cc3)CC[C@H]2CC(=O)O)CC1	inactive: -0.965%
O=C(N[C@@H]1CCN(C(=O)c2ccc3cc[nH]c3c2)C[C@H]1O)c1cnccn1	inactive: -3.34%
COCCNC(=O)[C@@H]1CCC[C@@H](NC(=O)c2ccc(Cl)cc2)CN(C)C(=O)C1	inactive: 11.9% [at 57.5 µM]
COc1ccccc1C(O)c1nc(Nc2cccc(F)c2)n[nH]1 (configuration not stated)	inactive: 35.8% [at 57.5 µM]
COc1ccc(NC(=O)N2CCc3c(nc4cc(-c5ccccc5)[nH]n4c3=O)C2)c(OC)c1	inactive: -10%
CN(Cc1ccc(F)cc1)C(=O)C1CCCC1	inactive: -0.943% [at 57.5 µM]
COc1ccc(-c2ccnc(N[C@H]3CO[C@H]4[C@@H]3OC[C@@H]4NS(=O)(=O)c3ccc(C)cc3)n2)cc1	inactive: -6.55%
CCNC(=O)N1C[C@@H]2OCC(=O)N(C(C)C)[C@@H]2C1	inactive: -9.65% [at 76.7 µM]
Cn1ccnc1-c1ccc(N2CC[C@](C)(O)[C@@H](O)C2)nn1	inactive: -4.12%
O=C(N[C@@H]1CCOC[C@H]1OCCO)c1cc(-c2ccsc2)n[nH]1	inactive: 1.53%
Cc1noc2nc3c(c(C(=O)N[C@H]4CC[C@H]4NC4CCCC4)c12)CCC3	inactive: -6.89%
Cc1ccsc1CN1CC(Oc2ccccc2C(=O)NC2CC2)C1	inactive: 1.08%
CC(C)(C)c1ccc(-c2cc(C[C@H]3CNCC[C@H]3CC(=O)NCc3cccs3)no2)cc1	inactive: 4.45%

Part of the list above, bar-delimited.
SMILES | activity, negative = inhibition
NC(=O)[C@@H](Cc1c[nH]c2ccccc12)NC(=O)[C@@H]1[C@@H](NC(=O)NC2CCCCC2)CCN1C(=O)c1cnccn1 | inactive: -0.0947%
CCNC(=O)N1C[C@@H]2OCC(=O)N(C(C)C)[C@@H]2C1 | inactive: -9.65% [at 76.7 µM]
